Experimental data reported in the supplement of paper PMC6411743.
± gives the standard deviation of the averaged measurements. The list shows a part of the results.

Amino acid sequences for entries named in this document (tags omitted). A change or cut given only in a name is not applied to a line headed by its entry.
UniProt P11166: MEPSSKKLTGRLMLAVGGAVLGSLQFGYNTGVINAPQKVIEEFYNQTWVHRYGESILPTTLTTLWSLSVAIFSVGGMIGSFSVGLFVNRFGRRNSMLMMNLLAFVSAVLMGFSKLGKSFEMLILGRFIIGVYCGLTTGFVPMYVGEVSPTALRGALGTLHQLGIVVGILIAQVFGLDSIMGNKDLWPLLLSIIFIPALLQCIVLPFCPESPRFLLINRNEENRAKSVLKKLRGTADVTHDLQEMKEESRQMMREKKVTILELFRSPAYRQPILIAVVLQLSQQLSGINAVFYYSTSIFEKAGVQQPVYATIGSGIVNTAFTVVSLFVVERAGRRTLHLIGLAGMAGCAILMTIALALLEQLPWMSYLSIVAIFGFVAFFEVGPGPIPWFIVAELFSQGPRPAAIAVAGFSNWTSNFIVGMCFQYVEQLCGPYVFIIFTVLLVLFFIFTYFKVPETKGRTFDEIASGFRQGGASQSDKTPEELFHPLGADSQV
UniProt P24539: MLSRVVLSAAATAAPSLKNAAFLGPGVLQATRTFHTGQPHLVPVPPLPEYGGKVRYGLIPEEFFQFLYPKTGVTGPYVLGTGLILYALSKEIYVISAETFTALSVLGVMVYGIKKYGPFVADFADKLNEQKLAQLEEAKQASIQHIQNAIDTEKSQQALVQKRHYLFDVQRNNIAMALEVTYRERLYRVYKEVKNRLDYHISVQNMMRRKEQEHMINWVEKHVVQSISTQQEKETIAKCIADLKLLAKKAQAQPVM
UniProt P10747, whole entry: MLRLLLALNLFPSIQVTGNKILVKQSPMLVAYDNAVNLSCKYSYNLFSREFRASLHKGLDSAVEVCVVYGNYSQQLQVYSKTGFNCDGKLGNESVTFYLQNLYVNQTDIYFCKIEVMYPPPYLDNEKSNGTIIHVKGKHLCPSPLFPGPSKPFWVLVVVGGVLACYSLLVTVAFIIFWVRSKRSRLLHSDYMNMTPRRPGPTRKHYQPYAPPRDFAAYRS
UniProt P26368, whole entry: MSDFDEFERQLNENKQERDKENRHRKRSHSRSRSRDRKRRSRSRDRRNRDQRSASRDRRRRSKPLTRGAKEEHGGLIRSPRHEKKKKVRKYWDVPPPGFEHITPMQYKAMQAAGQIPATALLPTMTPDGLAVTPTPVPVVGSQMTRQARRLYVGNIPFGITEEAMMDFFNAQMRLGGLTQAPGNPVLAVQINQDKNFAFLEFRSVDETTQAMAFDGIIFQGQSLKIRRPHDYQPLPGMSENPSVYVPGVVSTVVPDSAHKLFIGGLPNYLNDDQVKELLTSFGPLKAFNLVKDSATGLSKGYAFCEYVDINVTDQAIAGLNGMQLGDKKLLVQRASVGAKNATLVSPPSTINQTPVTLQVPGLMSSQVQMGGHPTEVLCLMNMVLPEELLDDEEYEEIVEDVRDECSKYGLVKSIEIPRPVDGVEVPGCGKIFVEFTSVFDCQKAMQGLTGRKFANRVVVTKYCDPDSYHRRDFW
UniProt P11441: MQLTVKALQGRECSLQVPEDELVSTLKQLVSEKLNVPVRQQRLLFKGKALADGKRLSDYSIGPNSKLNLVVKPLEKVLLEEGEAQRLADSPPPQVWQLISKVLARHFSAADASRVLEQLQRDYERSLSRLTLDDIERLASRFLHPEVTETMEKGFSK
UniProt P12956: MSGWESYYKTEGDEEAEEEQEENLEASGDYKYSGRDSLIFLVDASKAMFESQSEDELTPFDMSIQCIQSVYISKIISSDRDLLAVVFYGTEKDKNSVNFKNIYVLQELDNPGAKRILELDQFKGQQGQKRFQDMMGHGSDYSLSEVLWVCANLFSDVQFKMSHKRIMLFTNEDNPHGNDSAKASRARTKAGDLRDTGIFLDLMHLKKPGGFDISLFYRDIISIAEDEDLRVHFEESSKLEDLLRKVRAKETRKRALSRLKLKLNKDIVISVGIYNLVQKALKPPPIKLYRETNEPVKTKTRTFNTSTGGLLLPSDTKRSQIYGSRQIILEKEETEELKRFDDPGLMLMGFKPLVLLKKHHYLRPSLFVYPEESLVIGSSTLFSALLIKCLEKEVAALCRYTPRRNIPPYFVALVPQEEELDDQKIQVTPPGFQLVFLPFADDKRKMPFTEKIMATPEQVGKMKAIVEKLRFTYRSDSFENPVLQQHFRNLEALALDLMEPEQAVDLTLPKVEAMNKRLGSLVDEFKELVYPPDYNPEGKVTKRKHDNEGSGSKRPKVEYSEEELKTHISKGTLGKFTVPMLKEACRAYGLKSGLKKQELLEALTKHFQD
UniProt P14618, whole entry, looked up: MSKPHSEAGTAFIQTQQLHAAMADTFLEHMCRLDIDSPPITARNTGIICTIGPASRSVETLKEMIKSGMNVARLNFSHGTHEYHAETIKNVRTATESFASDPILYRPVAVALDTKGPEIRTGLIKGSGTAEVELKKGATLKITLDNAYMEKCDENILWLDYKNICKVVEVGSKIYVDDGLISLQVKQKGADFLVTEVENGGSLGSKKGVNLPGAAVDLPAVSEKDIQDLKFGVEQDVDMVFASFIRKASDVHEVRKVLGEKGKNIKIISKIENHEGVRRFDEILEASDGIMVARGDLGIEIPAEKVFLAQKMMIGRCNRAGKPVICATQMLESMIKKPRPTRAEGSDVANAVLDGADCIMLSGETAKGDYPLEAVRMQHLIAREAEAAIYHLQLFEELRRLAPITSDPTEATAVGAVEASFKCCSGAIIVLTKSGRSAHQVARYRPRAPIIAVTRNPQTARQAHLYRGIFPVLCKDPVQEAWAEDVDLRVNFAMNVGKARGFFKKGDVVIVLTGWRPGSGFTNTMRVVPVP
UniProt P13598: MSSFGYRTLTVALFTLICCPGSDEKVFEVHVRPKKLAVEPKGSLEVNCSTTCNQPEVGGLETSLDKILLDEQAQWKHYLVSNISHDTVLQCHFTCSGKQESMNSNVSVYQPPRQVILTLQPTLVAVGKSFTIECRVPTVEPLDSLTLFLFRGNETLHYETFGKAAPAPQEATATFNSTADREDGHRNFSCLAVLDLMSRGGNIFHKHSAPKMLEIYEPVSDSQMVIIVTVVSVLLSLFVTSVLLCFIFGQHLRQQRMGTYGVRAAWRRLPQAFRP
UniProt P09429: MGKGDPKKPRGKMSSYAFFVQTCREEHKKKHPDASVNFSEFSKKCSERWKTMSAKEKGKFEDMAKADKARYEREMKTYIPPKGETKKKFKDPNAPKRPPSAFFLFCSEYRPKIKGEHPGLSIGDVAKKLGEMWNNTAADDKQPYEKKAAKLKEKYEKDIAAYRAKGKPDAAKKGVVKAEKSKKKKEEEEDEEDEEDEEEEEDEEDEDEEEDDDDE
UniProt P22695: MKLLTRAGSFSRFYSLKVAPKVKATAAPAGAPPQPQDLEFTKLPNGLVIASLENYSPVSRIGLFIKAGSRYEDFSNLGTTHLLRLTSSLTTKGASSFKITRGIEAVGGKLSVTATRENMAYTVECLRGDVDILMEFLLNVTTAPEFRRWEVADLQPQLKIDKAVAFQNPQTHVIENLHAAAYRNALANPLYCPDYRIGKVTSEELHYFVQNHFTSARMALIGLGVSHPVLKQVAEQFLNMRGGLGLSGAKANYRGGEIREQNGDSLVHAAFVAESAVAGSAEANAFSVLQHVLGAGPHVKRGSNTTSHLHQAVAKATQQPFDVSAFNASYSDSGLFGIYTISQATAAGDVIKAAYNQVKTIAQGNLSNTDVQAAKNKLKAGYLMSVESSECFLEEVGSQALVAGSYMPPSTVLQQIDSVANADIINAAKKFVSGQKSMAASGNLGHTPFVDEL
UniProt P10586, whole entry: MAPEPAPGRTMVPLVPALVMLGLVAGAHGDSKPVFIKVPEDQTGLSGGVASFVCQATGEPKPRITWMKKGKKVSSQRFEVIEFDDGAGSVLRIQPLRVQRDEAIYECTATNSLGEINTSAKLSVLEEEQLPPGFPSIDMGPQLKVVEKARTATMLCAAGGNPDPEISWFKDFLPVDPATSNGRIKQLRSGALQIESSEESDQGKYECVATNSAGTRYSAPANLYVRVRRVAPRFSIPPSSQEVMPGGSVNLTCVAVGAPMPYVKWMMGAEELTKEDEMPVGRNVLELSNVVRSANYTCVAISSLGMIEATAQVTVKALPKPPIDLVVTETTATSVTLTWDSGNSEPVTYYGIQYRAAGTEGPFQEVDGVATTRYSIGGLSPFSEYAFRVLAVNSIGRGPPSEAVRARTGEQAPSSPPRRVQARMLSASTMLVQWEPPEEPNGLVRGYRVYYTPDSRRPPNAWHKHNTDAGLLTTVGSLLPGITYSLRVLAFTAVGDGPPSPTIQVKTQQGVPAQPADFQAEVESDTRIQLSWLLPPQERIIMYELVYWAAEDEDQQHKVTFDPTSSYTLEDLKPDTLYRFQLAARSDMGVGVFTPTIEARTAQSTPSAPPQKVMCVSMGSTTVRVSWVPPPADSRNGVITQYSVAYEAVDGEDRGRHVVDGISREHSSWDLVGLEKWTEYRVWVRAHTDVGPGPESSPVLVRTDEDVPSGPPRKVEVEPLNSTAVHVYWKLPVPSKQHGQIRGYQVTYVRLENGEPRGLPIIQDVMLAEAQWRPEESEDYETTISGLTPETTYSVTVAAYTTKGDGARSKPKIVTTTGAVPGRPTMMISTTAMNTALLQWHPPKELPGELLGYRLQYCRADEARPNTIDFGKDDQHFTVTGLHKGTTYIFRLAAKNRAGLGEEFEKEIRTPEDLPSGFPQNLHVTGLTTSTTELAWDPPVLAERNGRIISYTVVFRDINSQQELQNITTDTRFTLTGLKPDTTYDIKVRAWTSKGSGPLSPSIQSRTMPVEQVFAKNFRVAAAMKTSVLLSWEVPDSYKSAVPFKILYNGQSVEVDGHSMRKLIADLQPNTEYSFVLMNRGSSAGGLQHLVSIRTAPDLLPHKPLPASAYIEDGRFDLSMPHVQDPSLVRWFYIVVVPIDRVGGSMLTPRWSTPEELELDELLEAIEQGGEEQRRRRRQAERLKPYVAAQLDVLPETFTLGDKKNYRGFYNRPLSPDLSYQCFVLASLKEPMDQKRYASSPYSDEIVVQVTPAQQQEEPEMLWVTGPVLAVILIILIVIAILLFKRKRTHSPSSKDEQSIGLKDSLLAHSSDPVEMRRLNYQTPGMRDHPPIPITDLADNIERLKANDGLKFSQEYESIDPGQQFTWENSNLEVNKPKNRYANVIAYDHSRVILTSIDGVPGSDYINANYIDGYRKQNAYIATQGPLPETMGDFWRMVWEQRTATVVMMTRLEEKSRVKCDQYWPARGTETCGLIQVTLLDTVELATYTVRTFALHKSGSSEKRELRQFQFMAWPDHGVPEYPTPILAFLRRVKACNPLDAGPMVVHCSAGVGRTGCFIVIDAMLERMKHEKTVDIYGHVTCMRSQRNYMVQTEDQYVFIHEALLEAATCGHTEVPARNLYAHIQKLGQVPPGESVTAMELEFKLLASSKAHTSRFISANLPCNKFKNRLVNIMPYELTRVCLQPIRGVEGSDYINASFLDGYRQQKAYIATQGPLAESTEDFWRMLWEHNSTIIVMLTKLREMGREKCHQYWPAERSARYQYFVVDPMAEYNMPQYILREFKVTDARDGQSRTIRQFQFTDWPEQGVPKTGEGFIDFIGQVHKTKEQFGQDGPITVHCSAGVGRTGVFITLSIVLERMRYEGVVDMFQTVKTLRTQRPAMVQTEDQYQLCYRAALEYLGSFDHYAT
UniProt P17707: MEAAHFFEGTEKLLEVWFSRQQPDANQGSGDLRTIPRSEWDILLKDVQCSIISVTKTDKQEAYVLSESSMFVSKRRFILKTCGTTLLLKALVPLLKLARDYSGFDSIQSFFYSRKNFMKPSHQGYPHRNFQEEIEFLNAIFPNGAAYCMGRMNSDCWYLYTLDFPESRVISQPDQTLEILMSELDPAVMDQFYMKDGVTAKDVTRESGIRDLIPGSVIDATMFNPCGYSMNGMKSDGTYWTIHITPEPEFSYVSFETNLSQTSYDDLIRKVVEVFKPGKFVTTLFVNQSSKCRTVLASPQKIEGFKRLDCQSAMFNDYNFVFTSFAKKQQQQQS
UniProt P0C7P0: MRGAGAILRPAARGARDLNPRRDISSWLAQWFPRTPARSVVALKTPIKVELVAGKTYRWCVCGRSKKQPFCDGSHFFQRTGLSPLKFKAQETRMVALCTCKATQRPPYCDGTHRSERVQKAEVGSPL
UniProt P24534: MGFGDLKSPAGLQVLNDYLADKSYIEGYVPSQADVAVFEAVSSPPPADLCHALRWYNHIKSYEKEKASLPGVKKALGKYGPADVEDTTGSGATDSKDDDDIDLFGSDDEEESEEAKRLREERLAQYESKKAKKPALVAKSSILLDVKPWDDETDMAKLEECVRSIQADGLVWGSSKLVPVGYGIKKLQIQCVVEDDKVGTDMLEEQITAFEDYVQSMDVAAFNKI
UniProt P10746: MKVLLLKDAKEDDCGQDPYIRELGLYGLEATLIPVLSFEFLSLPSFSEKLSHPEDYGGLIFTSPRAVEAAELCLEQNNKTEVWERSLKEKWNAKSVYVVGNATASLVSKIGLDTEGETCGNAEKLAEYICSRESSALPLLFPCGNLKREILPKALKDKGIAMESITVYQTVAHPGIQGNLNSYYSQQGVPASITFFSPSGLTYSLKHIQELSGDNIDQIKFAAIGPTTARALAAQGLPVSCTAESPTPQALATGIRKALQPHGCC

Compound: Nc1nc2c(ncn2[C@@H]2O[C@H](COP(=O)(O)OP(=O)(O)OP(=O)(O)O)[C@@H](O)[C@H]2O)c(=O)[nH]1 [guanosine triphosphate]
Assay: NP40-soluble protein abundance relative to vehicle (solubility fold change) (ratio); higher = more soluble protein in presence of GTP
Summary of the method: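 Eight concentrations, 0.1 to 10 mM, were tested on Jurkat crude lysate for 10 min at room temperature and then 3 min at 37 °C, in three independent experiments. The lysate was solubilised with 0.8% NP40 and benzonase, ultracentrifuged, and the supernatant TMT-labelled for LC-MS/MS. Each value is the fold change against the detergent-processed vehicle in its own replicate, from vsn-normalised intensities.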

Target	NP40-soluble protein abundance (concentration: 0.1mM)	NP40-soluble protein abundance (concentration: 0.5mM)	NP40-soluble protein abundance (concentration: 1mM)	NP40-soluble protein abundance (concentration: 2mM)	NP40-soluble protein abundance (concentration: 4mM)	NP40-soluble protein abundance (concentration: 6mM)	NP40-soluble protein abundance (concentration: 8mM)	NP40-soluble protein abundance (concentration: 10mM)
CSRP1 (UniProt P21291)	0.905 ± 0.097	0.9 ± 0.092	0.88 ± 0.08	0.858 ± 0.067	0.87 ± 0.06	0.826 ± 0.054	0.885 ± 0.1	0.852 ± 0.1
SLC2A1 (UniProt P11166)	0.925 ± 0.04	0.895 ± 0.024	0.918 ± 0.016	0.94014 ± 0.00094	0.933 ± 0.031	0.917 ± 0.021	0.894 ± 0.033	0.883 ± 0.01
UniProt P24539 and related entries	0.856 ± 0.14	0.84 ± 0.045	1.06 ± 0.17	1.11 ± 0.15	1.08 ± 0.21	1.13 ± 0.14	0.949 ± 0.2	1.15 ± 0.24
UniProt P10747 and related entries	1 ± 0.1	0.959 ± 0.086	1.06 ± 0.13	1.02 ± 0.12	0.98 ± 0.15	1.01 ± 0.11	0.984 ± 0.14	0.986 ± 0.086
UniProt P26368 and related entries	1.21 ± 0.06	1.64 ± 0.23	1.67 ± 0.25	1.69 ± 0.25	1.7 ± 0.29	1.75 ± 0.25	1.73 ± 0.29	1.71 ± 0.26
UBL4A (UniProt P11441)	0.881 ± 0.072	0.855 ± 0.082	1.02 ± 0.13	1.08 ± 0.1	1.06 ± 0.13	1.06 ± 0.091	1.02 ± 0.091	1.11 ± 0.15
XRCC6 (UniProt P12956)	0.961 ± 0.045	1 ± 0.065	0.931 ± 0.056	0.929 ± 0.038	0.933 ± 0.061	0.919 ± 0.058	0.903 ± 0.062	0.887 ± 0.029
UniProt P08047 and related entries	0.916 ± 0.06	0.939 ± 0.062	0.967 ± 0.064	0.957 ± 0.082	0.918 ± 0.079	0.963 ± 0.091	0.975 ± 0.043	1.01 ± 0.039
UniProt P14618 and related entries	0.97 ± 0.03	0.994 ± 0.076	0.905 ± 0.052	0.902 ± 0.052	0.914 ± 0.046	0.878 ± 0.067	0.858 ± 0.036	0.835 ± 0.017
ICAM2 (UniProt P13598)	0.85 ± 0.077	0.861 ± 0.1	0.937 ± 0.1	0.854 ± 0.11	0.849 ± 0.12	0.879 ± 0.13	0.839 ± 0.11	0.9 ± 0.098
M6PR (UniProt P20645)	0.88 ± 0.035	0.889 ± 0.053	0.923 ± 0.064	0.867 ± 0.081	0.855 ± 0.074	0.875 ± 0.091	0.854 ± 0.048	0.881 ± 0.053
UniProt P10619 and related entries	0.9555 ± 0.0072	0.891 ± 0.054	0.984 ± 0.019	0.904 ± 0.0098	0.928 ± 0.031	0.908 ± 0.025	0.884 ± 0.076	0.851 ± 0.022
P0DN76 and related entries (UniProt Q01081+P0DN76)	1.23 ± 0.074	1.61 ± 0.28	1.64 ± 0.32	1.67 ± 0.32	1.71 ± 0.36	1.78 ± 0.4	1.79 ± 0.45	1.76 ± 0.38
UniProt P23511 and related entries	1.05 ± 0.13	0.825 ± 0.081	0.928 ± 0.15	0.911 ± 0.14	0.882 ± 0.19	0.859 ± 0.13	0.898 ± 0.15	0.859 ± 0.12
TCEA1 (UniProt P23193)	0.951 ± 0.11	0.921 ± 0.091	0.953 ± 0.1	0.881 ± 0.11	0.89 ± 0.12	0.898 ± 0.11	0.935 ± 0.12	0.888 ± 0.087
HMGB1 (UniProt P09429)	0.783 ± 0.059	0.784 ± 0.048	1.06 ± 0.051	0.99 ± 0.055	1 ± 0.038	1.01 ± 0.068	0.992 ± 0.086	1.19 ± 0.093
UniProt P25445 and related entries	0.827 ± 0.14	0.819 ± 0.2	0.874 ± 0.16	0.856 ± 0.19	0.865 ± 0.2	0.854 ± 0.17	0.848 ± 0.16	0.89 ± 0.16
UQCRC2 (UniProt P22695)	0.998 ± 0.029	0.963 ± 0.043	0.953 ± 0.035	0.943 ± 0.067	0.958 ± 0.06	0.928 ± 0.063	0.899 ± 0.022	0.871 ± 0.018
UniProt P17706 and related entries	0.995 ± 0.051	0.982 ± 0.041	0.937 ± 0.058	0.958 ± 0.044	0.967 ± 0.022	0.937 ± 0.043	0.942 ± 0.035	0.928 ± 0.037
UniProt P10586 and related entries	1.08 ± 0.12	1.06 ± 0.12	1.13 ± 0.14	1.03 ± 0.17	1.03 ± 0.2	0.993 ± 0.19	1.06 ± 0.16	1 ± 0.13
AMD1 (UniProt P17707)	1.2 ± 0.21	1.16 ± 0.087	1.22 ± 0.11	1.2 ± 0.23	1.21 ± 0.2	1.2 ± 0.1	1.16 ± 0.082	1.13 ± 0.06
UniProt P15923-2|P15923 and related entries	0.914 ± 0.035	0.937 ± 0.066	0.979 ± 0.045	0.935 ± 0.085	0.914 ± 0.12	0.943 ± 0.1	0.955 ± 0.053	0.972 ± 0.082
IGLL1 (UniProt P15814)	0.951 ± 0.03	0.966 ± 0.057	1.02 ± 0.013	1.0165 ± 0.001	1.02 ± 0.036	0.972 ± 0.048	0.996 ± 0.028	1.01 ± 0.036
CISD3 (UniProt P0C7P0)	1.08 ± 0.017	1 ± 0.083	1.154 ± 0.0099	1.13 ± 0.1	1.24 ± 0.12	1.16 ± 0.16	1.17 ± 0.049	1.15 ± 0.12
EEF1B2 (UniProt P24534)	0.85 ± 0.084	0.866 ± 0.059	1.01 ± 0.093	0.993 ± 0.14	1.04 ± 0.23	1.01 ± 0.15	1.03 ± 0.1	1.1 ± 0.21
EPRS (UniProt P07814)	1.06 ± 0.093	1.14 ± 0.16	1.14 ± 0.19	1.22 ± 0.25	1.24 ± 0.26	1.27 ± 0.3	1.26 ± 0.29	1.19 ± 0.28
UROS (UniProt P10746)	0.991 ± 0.06	0.98 ± 0.032	0.986 ± 0.038	0.963 ± 0.086	0.939 ± 0.13	0.941 ± 0.13	0.94 ± 0.083	0.935 ± 0.1

Reformatted comma-delimited: entries from further up
Target,NP40-soluble protein abundance (concentration: 0.1mM),NP40-soluble protein abundance (concentration: 0.5mM),NP40-soluble protein abundance (concentration: 1mM),NP40-soluble protein abundance (concentration: 2mM),NP40-soluble protein abundance (concentration: 4mM),NP40-soluble protein abundance (concentration: 6mM),NP40-soluble protein abundance (concentration: 8mM),NP40-soluble protein abundance (concentration: 10mM)
CSRP1 (UniProt P21291),0.905 ± 0.097,0.9 ± 0.092,0.88 ± 0.08,0.858 ± 0.067,0.87 ± 0.06,0.826 ± 0.054,0.885 ± 0.1,0.852 ± 0.1
SLC2A1 (UniProt P11166),0.925 ± 0.04,0.895 ± 0.024,0.918 ± 0.016,0.94014 ± 0.00094,0.933 ± 0.031,0.917 ± 0.021,0.894 ± 0.033,0.883 ± 0.01
UniProt P08047 and related entries,0.916 ± 0.06,0.939 ± 0.062,0.967 ± 0.064,0.957 ± 0.082,0.918 ± 0.079,0.963 ± 0.091,0.975 ± 0.043,1.01 ± 0.039
M6PR (UniProt P20645),0.88 ± 0.035,0.889 ± 0.053,0.923 ± 0.064,0.867 ± 0.081,0.855 ± 0.074,0.875 ± 0.091,0.854 ± 0.048,0.881 ± 0.053
UQCRC2 (UniProt P22695),0.998 ± 0.029,0.963 ± 0.043,0.953 ± 0.035,0.943 ± 0.067,0.958 ± 0.06,0.928 ± 0.063,0.899 ± 0.022,0.871 ± 0.018
UniProt P10586 and related entries,1.08 ± 0.12,1.06 ± 0.12,1.13 ± 0.14,1.03 ± 0.17,1.03 ± 0.2,0.993 ± 0.19,1.06 ± 0.16,1 ± 0.13
UROS (UniProt P10746),0.991 ± 0.06,0.98 ± 0.032,0.986 ± 0.038,0.963 ± 0.086,0.939 ± 0.13,0.941 ± 0.13,0.94 ± 0.083,0.935 ± 0.1
